No constants are given. Whether binding was seen depends on the method and setting. In cells and extracts the contact can be indirect. For some assays here: Binding can be weak; no strength is given. Sequences can lack the tags named with a protein.

Binding data for 3 molecules are collected here from article PMC8566215.

Assay in all cases: co-IP; YFP fusion as bait on GFP-Trap agarose beads from N. benthamiana leaves transiently co-expressing the proteins, extracted 48 h post-infiltration; lysis buffer as for MS; eluted by boiling in SDS-loading buffer; blots with anti-GFP and anti-HA
In assay [1] the target is T1, 14-3-3 KAPPA:YFP (Arabidopsis thaliana) (UniProt P48348).
T1 sequence: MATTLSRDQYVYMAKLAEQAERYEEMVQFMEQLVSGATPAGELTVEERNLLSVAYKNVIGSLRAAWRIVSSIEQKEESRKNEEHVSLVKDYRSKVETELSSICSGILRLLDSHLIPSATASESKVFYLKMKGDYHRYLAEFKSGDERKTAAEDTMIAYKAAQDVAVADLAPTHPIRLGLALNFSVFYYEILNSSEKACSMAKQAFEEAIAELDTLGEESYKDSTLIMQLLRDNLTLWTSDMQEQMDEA

In assay [2] the target is T2, 14-3-3 OMEGA:YFP (Arabidopsis thaliana) (UniProt Q01525).
T2 sequence: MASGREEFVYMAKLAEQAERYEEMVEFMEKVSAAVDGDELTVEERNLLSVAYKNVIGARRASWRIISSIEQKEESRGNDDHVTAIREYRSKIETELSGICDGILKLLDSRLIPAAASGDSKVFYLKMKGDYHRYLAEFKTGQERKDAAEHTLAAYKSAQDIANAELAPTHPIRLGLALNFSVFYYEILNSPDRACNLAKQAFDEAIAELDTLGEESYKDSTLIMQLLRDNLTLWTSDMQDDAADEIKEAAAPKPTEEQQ

In assay [3] the target is T3, 14-3-3 CHI:YFP (Arabidopsis thaliana) (UniProt P42643).
T3 sequence: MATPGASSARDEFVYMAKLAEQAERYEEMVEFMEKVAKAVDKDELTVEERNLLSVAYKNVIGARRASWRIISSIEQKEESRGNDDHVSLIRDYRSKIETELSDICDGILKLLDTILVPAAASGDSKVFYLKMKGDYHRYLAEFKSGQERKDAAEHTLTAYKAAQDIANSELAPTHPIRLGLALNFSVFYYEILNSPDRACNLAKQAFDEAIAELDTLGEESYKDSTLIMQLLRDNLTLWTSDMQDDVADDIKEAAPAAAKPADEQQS

Assay [4] deals with THRUMIN1:YFP (Arabidopsis thaliana).

In the case of THRUMIN1:HA (Arabidopsis thaliana), the binding entry is “binds” in assay [1], “binds” in assay [2] and “no binding” in assay [3].

B1: 14-3-3 KAPPA:HA (protein, UniProt P48348 1-248)
chain: T1 sequence
As to B1, the binding entry in assay [4] is on record as “binds”.

B2: 14-3-3 OMEGA (prey of the Co-IP of Figure 8D) (protein, UniProt Q01525 1-259)
chain: T2 sequence
Regarding B2, the binding result in assay [4] is on record as “binds”.
